Data from patent publication US20160257968A1.
These are yes or no findings as the source states them, for the method shown. In cells and extracts the contact can be indirect. Some entries that bind do so weakly or less than the wild type. Tags and fused reporters may be left off the sequences shown.

Experiments:
Experiment in all cases: bead-based (Luminex) co-immunoprecipitation from lysate of co-transformed corn leaf protoplasts, complex detected with biotinylated anti-CFP antibody
Zmhdz31 = target: T1, Zmhdz31
T1 sequence (chain, by the resolver, C-terminal CFP fusion, not carried in the letters): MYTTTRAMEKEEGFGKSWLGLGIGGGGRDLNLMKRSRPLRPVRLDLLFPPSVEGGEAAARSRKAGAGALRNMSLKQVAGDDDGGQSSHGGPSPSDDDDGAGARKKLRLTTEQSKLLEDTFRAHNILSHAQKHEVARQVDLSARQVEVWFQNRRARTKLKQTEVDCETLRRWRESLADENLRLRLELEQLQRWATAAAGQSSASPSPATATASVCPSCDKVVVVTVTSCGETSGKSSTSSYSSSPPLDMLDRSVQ

Zmhdz30 = target: T2, Zmhdz30
T2 sequence (chain, by the resolver, C-terminal CFP fusion, not carried in the letters): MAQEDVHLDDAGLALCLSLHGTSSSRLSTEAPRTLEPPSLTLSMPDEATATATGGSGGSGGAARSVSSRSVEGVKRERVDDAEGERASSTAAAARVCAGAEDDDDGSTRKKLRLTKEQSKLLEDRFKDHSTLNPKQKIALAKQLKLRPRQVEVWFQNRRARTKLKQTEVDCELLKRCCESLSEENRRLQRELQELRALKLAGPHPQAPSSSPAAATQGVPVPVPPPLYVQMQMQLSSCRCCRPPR

Zmhdz29 = target: T3, Zmhdz29
T3 sequence (chain, by the resolver, C-terminal CFP fusion, not carried in the letters): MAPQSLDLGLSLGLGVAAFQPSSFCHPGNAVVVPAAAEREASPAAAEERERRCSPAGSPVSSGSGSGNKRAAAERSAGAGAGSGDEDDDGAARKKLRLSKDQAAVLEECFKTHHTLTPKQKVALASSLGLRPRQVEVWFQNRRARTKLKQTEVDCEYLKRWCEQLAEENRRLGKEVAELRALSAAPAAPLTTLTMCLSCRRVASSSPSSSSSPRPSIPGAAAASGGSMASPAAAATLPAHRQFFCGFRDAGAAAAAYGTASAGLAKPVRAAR

Zmhdz35 = target: T4, Zmhdz35
T4 sequence (chain, by the resolver, C-terminal CFP fusion, not in the letters): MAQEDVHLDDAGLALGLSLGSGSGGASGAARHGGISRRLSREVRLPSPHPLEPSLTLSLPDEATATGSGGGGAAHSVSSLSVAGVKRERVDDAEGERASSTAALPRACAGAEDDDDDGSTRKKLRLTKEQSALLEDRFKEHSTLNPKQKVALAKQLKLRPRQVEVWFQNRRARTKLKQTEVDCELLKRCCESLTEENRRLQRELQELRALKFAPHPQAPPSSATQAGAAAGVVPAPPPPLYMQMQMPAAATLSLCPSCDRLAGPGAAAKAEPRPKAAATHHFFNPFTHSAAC

Zmhdz33 = target: T5, Zmhdz33
T5 sequence (chain, by the resolver, C-terminal CFP fusion, not in the letters): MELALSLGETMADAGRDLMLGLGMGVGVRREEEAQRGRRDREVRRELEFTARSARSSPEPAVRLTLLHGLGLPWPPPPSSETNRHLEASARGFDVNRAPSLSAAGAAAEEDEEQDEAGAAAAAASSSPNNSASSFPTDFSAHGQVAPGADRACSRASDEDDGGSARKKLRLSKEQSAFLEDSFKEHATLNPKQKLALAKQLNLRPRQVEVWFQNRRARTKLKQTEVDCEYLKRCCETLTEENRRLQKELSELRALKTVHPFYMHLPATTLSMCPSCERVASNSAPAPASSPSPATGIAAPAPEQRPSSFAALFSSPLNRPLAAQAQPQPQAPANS

Zmhdz24 = target: T6, Zmhdz24
T6 sequence (chain, by the resolver, C-terminal CFP fusion, not in the letters): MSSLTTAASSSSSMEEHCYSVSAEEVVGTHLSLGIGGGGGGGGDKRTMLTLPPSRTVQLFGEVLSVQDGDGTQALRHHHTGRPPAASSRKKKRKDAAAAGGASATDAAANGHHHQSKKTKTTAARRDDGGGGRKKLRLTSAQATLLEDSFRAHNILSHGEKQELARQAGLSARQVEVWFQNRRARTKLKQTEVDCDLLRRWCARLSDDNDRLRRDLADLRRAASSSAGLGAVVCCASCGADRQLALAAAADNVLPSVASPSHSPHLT

Zmhdz21 = target: T7, Zmhdz21
T7 sequence (chain, by the resolver, C-terminal CFP fusion, not in the letters): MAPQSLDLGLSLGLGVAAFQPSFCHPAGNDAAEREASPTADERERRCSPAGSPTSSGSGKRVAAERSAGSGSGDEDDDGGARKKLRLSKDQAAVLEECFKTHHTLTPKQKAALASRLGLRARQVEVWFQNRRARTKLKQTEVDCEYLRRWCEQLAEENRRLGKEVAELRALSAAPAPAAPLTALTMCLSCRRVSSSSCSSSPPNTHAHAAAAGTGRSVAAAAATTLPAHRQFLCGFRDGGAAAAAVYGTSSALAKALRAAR

Zmhdz34 = target: T8, Zmhdz34
T8 sequence (chain, by the resolver, C-terminal CFP fusion, not in the letters): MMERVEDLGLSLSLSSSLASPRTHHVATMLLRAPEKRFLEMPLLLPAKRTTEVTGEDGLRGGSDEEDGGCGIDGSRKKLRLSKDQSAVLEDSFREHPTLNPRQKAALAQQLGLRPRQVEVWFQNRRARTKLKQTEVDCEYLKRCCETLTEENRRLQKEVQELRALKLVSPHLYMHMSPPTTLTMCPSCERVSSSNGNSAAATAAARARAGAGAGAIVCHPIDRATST

Zmhdz26 = target: T9, Zmhdz26
T9 sequence (chain, by the resolver, C-terminal CFP fusion, not carried in the letters): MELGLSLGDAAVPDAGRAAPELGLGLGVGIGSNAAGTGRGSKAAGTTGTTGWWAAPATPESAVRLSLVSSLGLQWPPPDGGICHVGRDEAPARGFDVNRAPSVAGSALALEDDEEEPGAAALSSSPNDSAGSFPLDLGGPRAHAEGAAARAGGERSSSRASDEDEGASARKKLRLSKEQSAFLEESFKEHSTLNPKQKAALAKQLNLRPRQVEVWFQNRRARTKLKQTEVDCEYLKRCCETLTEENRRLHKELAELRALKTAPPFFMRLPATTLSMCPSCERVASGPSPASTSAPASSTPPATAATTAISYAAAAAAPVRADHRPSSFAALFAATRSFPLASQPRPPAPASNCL

Zmhdz25 = target: T10, Zmhdz25
T10 sequence (chain, by the resolver, C-terminal CFP fusion, not carried in the letters): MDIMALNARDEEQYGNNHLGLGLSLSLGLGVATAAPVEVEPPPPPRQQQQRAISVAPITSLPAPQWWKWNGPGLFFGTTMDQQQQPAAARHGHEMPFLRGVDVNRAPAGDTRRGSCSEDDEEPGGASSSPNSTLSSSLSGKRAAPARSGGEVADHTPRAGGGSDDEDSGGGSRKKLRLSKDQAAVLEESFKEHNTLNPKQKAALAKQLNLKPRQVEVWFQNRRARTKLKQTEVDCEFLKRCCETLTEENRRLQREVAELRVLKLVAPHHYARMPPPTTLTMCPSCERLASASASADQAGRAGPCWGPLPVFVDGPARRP

Measured: binding

B1: ATHB17Δ113::MYC-HA (C-terminal MYC-HA fusion of ATHB17Δ113) (protein, not shown: small tags and cut ends)
chain: MNRLPSSEDGDDEEFSHDDGSAPPRKKLRLTREQSRLLEDSFRQNHTLNPKQKEVLAKHLMLRPRQIEVWFQNRRARSKLKQTEMECEYLKRWFGSLTEENHRLHREVEELRAIKVGPTTVNSASSLTMCPRCERVTPAASPSRAVVPVPAKKTFPPQERDR
binds: all assays above
